Results are given in words; binding and its absence hold for the method and conditions named. Binding calls can cover weak binding; strength is not graded here.
Biological target: Fhit (fragile histidine triad protein), wild type, untagged (human) (UniProt P49789)
Test: anti-V5 immunoprecipitation from A549 cells co-transfected with FDXR-V5 and FHIT plasmids, immunoblot (FIG. 2E)

Amino acid sequences for entries named in this document (tags omitted). A change or cut given only in a name is not applied to a line headed by its entry.
UniProt P49789: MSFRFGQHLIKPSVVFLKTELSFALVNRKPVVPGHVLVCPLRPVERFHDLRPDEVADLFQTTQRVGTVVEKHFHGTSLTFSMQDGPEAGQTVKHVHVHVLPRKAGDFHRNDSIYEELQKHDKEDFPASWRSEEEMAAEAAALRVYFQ
UniProt P22570: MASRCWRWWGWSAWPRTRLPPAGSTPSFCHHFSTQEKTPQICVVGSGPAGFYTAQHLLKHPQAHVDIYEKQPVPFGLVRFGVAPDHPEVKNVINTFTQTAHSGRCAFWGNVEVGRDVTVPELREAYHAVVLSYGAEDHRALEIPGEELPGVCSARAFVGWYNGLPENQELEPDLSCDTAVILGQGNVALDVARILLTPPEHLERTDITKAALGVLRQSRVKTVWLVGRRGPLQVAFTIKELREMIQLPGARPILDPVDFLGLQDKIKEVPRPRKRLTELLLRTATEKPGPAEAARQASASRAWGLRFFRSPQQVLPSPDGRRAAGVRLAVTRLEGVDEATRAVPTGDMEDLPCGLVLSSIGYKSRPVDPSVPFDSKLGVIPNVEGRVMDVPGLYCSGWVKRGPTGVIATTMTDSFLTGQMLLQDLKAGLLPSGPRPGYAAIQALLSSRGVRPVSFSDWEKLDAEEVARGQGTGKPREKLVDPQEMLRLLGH

“V5-tagged ferredoxin reductase (FDXR-V5) (from UniProt P22570) (enzyme)” was tested, and the binding was “binds”.
